# Experimental data published in paper PMC10893103, “Cyclodextrin-Enabled Enantioselective Complexation Study of Cathinone Analogs” (Molecules, 2024).
# Several values for one entry are separate records, joined by “and”; a condition that tells them apart may be missing. Equal entries are not always repeated.
# Columns and labels:
# [1] = Chiral CE enantioseparation screening, pH 4.5
# [2] = Chiral CE enantioseparation screening, pH 4.5; remark: listed apart in the source
# [3] = Chiral CE enantioseparation screening, pH 4.5; remark: listed apart in the source
# [4] = Chiral CE enantioseparation screening, pH 4.5; remark: listed apart in the source
# [5] = Chiral CE enantioseparation screening, pH 4.5; remark: listed apart in the source
# [6] = Affinity capillary electrophoresis (ACE), pH 7.4; settings: 30 mM phosphate buffer pH 7.4; at the optimal CD concentration printed in brackets beside the value
# Excerpt: To assess the CD complex formation capability of the five cathinone derivatives, we devised a screening ACE method tailored to closely mimic physiological conditions. In a preliminary study, the ACE conditions were optimized regarding the type, pH, and concentration of the background electrolyte, the applied voltage, and the injection parameters. […] In order to avoid high Joule heat generation, sufficiently low voltage should be used; thus, after registering the Ohm plot (I-U plot), it was set to 15 kV. Throughout our ACE measurements, corrections for viscosity and ionic strength were systematically implemented to ensure precise determination of complex stability constants.
# The CE experiments were performed on a HP ^3DCE and on an Agilent 7100 instrument (Agilent Technologies, Waldbronn, Germany) equipped with a photodiode array detector and the Chemstation software for data handling. Untreated fused silica capillaries (50 µm id, 48.5 cm total, 40 cm effective length) were purchased from Agilent. Conditioning of new capillary was conducted by flushing with 1 M NaOH followed by 0.1 M NaOH and water for 30 min each. Prior to all runs, the capillary was preconditioned by rinsing with BGE (2 min). The temperature of the capillary was set to 25 °C. UV detection was performed at 215 nm, and 15–25 kV voltage was applied. Samples were injected hydrodynamically (150 mbar·sec, optimized in the 50–500 mbar·sec range). The CE-pH measurements were carried out applying 25 kV voltage and 200 mbar·sec injection.
# The background electrolyte of the CE-pH measurements contained 25 mM Na2HPO4 and 25 mM Na2B4O7, and the appropriate pH was adjusted with hydrochloric acid. During the ACE measurements, 30 mM phosphate buffer pH 7.4 (30 mM Na2HPO4—NaOH) was used. The running buffer was 20 mM acetic acid adjusting with 1 M Tris the pH to 4.5 during the chiral screening experiments. The BGEs contained CDs at various concentrations (0.25–20 mM) in the ACE experiments and 1-5-10 mM in the chiral method optimization experiments.
# Stock solutions of each cathinone analog (mephedrone, flephedrone, 4-MEC, butylone, and MDPV) were prepared separately in methanol (1 mg/ml), and appropriate dilutions with water were used to prepare sample solutions for the CE-pH titration and for the ACE studies applying DMSO as EOF marker, while their mixture was used during the chiral separation studies.
# The simplest way to determine the mobility is from the migration times (tmax) read from the electropherograms from which the apparent mobility could be calculated, but more accurate mobility values could be obtained by the determination with the Haarhoff–van der Linde (HVL) function based on Equation (2). (2) HVLδ(t;a0,a1,a2,a3δ)=a0/a2a3δ2πexp[−1/2(t−a1/a2)^2]/1/exp(a3δ)−1+1/2[1+erf(t−a1/2a2)] where a0 is the area of the HVL function, a1 is the position of the Gaussian component, a2 is the standard deviation of the Gaussian component, and a3δ is the peak shape distortion. The application of the HVL function is necessary in the case of accurate ACE measurements because, in several cases, the peaks are distorted due to the complex formation, which makes reading the migration times and calculating the mobility more difficult and imprecise.
# The most popular technique for quantifying the analyte–ligand interaction with CE is mobility shift ACE.
# [7] = 20 mM acetate buffer pH 4.5, CD 1 mM
# [8] = 20 mM acetate buffer pH 4.5, CD 5 mM
# [9] = 20 mM acetate buffer pH 4.5, CD 10 mM
# [10] = 20 mM acetate buffer pH 4.5, CD 1-5-10 mM
compound,measurement,setting,value
"O=S(=O)(O)CCCCOC[C@H]1O[C@@H]2O[C@H]3[C@H](O)[C@@H](O)[C@@H](O[C@H]4[C@H](O)[C@@H](O)[C@@H](O[C@H]5[C@H](O)[C@@H](O)[C@@H](O[C@H]6[C@H](O)[C@@H](O)[C@@H](O[C@H]7[C@H](O)[C@@H](O)[C@@H](O[C@H]8[C@H](O)[C@@H](O)[C@@H](O[C@H]1[C@H](O)[C@H]2O)O[C@@H]8COCCCCS(=O)(=O)O)O[C@@H]7COCCCCS(=O)(=O)O)O[C@@H]6COCCCCS(=O)(=O)O)O[C@@H]5COCCCCS(=O)(=O)O)O[C@@H]4COCCCCS(=O)(=O)O)O[C@@H]3COCCCCS(=O)(=O)O [6-(SB)7-β-CD, heptakis-(6-O-sulfobutyl)-β-CD]",Enantioseparation (Rs) of 4-MEC,[1]; [7],0
same,Enantioseparation (Rs) of 4-MEC,[1]; [8],0.7
same,Enantioseparation (Rs) of 4-MEC,[1]; [9],0.6
same,Enantioseparation (Rs) of Mephedrone,[2]; [7],0
same,Enantioseparation (Rs) of Mephedrone,[2]; [8],0.2
same,Enantioseparation (Rs) of Mephedrone,[2]; [9],0.2
same,Enantioseparation (Rs) of MDPV,[3]; [7],1.8
same,Enantioseparation (Rs) of MDPV,[3]; [8],2.6
same,Enantioseparation (Rs) of Butylone,[4]; [8],0.4
same,Enantioseparation (Rs) of Butylone,[4]; [9],0.6
same,Enantioseparation (Rs) of Flephedrone,[5]; [7],0
same,Enantioseparation (Rs) of Flephedrone,"[5]; 20 mM acetate buffer pH 4.5, CD 1 mM, listed as 6-(SB)7- β-CD",0 0 0
same,Enantioseparation (Rs) of Flephedrone,[5]; [8],0
same,Enantioseparation (Rs) of Flephedrone,"[5]; 20 mM acetate buffer pH 4.5, CD 5 mM, listed as 6-(SB)7- β-CD",0 0 0
same,Enantioseparation (Rs) of Flephedrone,[5]; [9],0
same,Enantioseparation (Rs) of Flephedrone,"[5]; 20 mM acetate buffer pH 4.5, CD 10 mM, listed as 6-(SB)7- β-CD",0 0 0
"CO[C@@H]1[C@@H](OC)[C@H]2O[C@H]3[C@H](OC)[C@@H](OC)[C@@H](O[C@H]4[C@H](OC)[C@@H](OC)[C@@H](O[C@H]5[C@H](OC)[C@@H](OC)[C@@H](O[C@H]6[C@H](OC)[C@@H](OC)[C@@H](O[C@H]7[C@H](OC)[C@@H](OC)[C@@H](O[C@H]8[C@H](OC)[C@@H](OC)[C@@H](O[C@@H]1[C@@H](COS(=O)(=O)O)O2)O[C@@H]8COS(=O)(=O)O)O[C@@H]7COS(=O)(=O)O)O[C@@H]6COS(=O)(=O)O)O[C@@H]5COS(=O)(=O)O)O[C@@H]4COS(=O)(=O)O)O[C@@H]3COS(=O)(=O)O [HDMS-β-CD, heptakis-(2,3-O-dimethyl, 6-O-sulfo)-β-CD]",Enantioseparation (Rs) of 4-MEC,[1]; [7],0.3
same,Enantioseparation (Rs) of 4-MEC,[1]; [8],1.5
same,Enantioseparation (Rs) of 4-MEC,[1]; [9],2.1
same,Enantioseparation (Rs) of Mephedrone,[2]; [7],0.2
same,Enantioseparation (Rs) of Mephedrone,[2]; [8],1.6
same,Enantioseparation (Rs) of Mephedrone,[2]; [9],2.3
same,Enantioseparation (Rs) of MDPV,[3]; [7],0.5
same,Enantioseparation (Rs) of MDPV,[3]; [8],1.9
same,Enantioseparation (Rs) of MDPV,[3]; [9],2.9
same,Enantioseparation (Rs) of Butylone,[4]; [7],0.8
same,Enantioseparation (Rs) of Butylone,[4]; [8],2.7
same,Enantioseparation (Rs) of Butylone,[4]; [9],4.0
same,Enantioseparation (Rs) of Flephedrone,[5]; [7],0.8
same,Enantioseparation (Rs) of Flephedrone,[5]; [8],1.7
same,Enantioseparation (Rs) of Flephedrone,[5]; [9],2.6
"CO[C@H]1[C@H]2O[C@H]3[C@H](OS(=O)(=O)O)[C@@H](OC)[C@@H](O[C@H]4[C@H](OS(=O)(=O)O)[C@@H](OC)[C@@H](O[C@H]5[C@H](OS(=O)(=O)O)[C@@H](OC)[C@@H](O[C@H]6[C@H](OS(=O)(=O)O)[C@@H](OC)[C@@H](O[C@H]7[C@H](OS(=O)(=O)O)[C@@H](OC)[C@@H](O[C@H]8[C@H](OS(=O)(=O)O)[C@@H](OC)[C@@H](O[C@@H]([C@@H]1OS(=O)(=O)O)[C@@H](COS(=O)(=O)O)O2)O[C@@H]8COS(=O)(=O)O)O[C@@H]7COS(=O)(=O)O)O[C@@H]6COS(=O)(=O)O)O[C@@H]5COS(=O)(=O)O)O[C@@H]4COS(=O)(=O)O)O[C@@H]3COS(=O)(=O)O [HMDiSu-β-CD, heptakis-(2-O-methyl, 3,6-O-disulfo)-β-CD]",Enantioseparation (Rs) of 4-MEC,[1]; [10],0
same,Enantioseparation (Rs) of Mephedrone,[2]; [10],0
same,Enantioseparation (Rs) of MDPV,[3]; [10],0
same,Enantioseparation (Rs) of Butylone,[4]; [10],0
same,Enantioseparation (Rs) of Flephedrone,[5]; [10],0
"OCCCNC[C@H]1O[C@@H]2O[C@H]3[C@H](O)[C@@H](O)[C@@H](O[C@H]4[C@H](O)[C@@H](O)[C@@H](O[C@H]5[C@H](O)[C@@H](O)[C@@H](O[C@H]6[C@H](O)[C@@H](O)[C@@H](O[C@H]7[C@H](O)[C@@H](O)[C@@H](O[C@H]8[C@H](O)[C@@H](O)[C@@H](O[C@H]1[C@H](O)[C@H]2O)O[C@@H]8CO)O[C@@H]7CO)O[C@@H]6CO)O[C@@H]5CO)O[C@@H]4CO)O[C@@H]3CO [HPA-β-CD, mono-6^A-(3-hydroxy)propylamino-β-CD]",MDPV maximal enantioresolution Rs,[6],0.6
"NC[C@H]1O[C@@H]2O[C@H]3[C@H](O)[C@@H](O)[C@@H](O[C@H]4[C@H](O)[C@@H](O)[C@@H](O[C@H]5[C@H](O)[C@@H](O)[C@@H](O[C@H]6[C@H](O)[C@@H](O)[C@@H](O[C@H]7[C@H](O)[C@@H](O)[C@@H](O[C@H]8[C@H](O)[C@@H](O)[C@@H](O[C@H]1[C@H](O)[C@H]2O)O[C@@H]8CO)O[C@@H]7CO)O[C@@H]6CO)O[C@@H]5CO)O[C@@H]4CO)O[C@@H]3CO [MA-β-CD, mono-(6-N-amino-6-deoxy)-β-CD]",Butylone maximal enantioresolution Rs,[6],0.5
same,MDPV maximal enantioresolution Rs,[6],0.7
"OC[C@H]1O[C@@H]2O[C@H]3[C@H](O)[C@@H](O)[C@@H](O[C@H]4[C@H](O)[C@@H](O)[C@@H](O[C@H]5[C@H](O)[C@@H](O)[C@@H](O[C@H]6[C@H](O)[C@@H](O)[C@@H](O[C@H]7[C@H](O)[C@@H](O)[C@@H](O[C@H]8[C@H](O)[C@@H](O)[C@@H](O[C@H]1[C@H](O)[C@H]2O)O[C@@H]8CO)O[C@@H]7CO)O[C@@H]6CO)O[C@@H]5CN1CCCC1)O[C@@H]4CO)O[C@@H]3CO [PYR-β-CD, 6-monodeoxy-6-pyrrolidine-β-CD]",MDPV maximal enantioresolution Rs,[6],0.5
acetylated-β-CD [Ac-β-CD],Butylone maximal enantioresolution Rs,[6],0.9
same,MDPV maximal enantioresolution Rs,[6],0.8
phosphated-β-CD [Phos-β-CD],4-MEC maximal enantioresolution Rs,[6],1.4
same,Butylone maximal enantioresolution Rs,[6],1.7
same,Flephedrone maximal enantioresolution Rs,[6],4.0
same,MDPV maximal enantioresolution Rs,[6],2.6
same,Mephedrone maximal enantioresolution Rs,[6],1.8
succinyl-β-CD [Succ-β-CD (DS~4)],4-MEC maximal enantioresolution Rs,[6],1.1
same,Butylone maximal enantioresolution Rs,[6],1.3
same,MDPV maximal enantioresolution Rs,[6],2.5
same,Enantioseparation (Rs) of Mephedrone,[2]; [7],0 and 0 0 0
same,Enantioseparation (Rs) of Mephedrone,[2]; [8],0 and 0 0 0
same,Enantioseparation (Rs) of Mephedrone,[2]; [9],0 and 0 0 0
same,Enantioseparation (Rs) of Butylone,[4]; [7],2.4
same,Enantioseparation (Rs) of Butylone,[4]; [8],2.5
same,Enantioseparation (Rs) of Butylone,[4]; [9],2.6
same,Enantioseparation (Rs) of Flephedrone,[5]; [7],0
same,Enantioseparation (Rs) of Flephedrone,[5]; [8],0.9
same,Enantioseparation (Rs) of Flephedrone,[5]; [9],1.2
succinyl-β-CD [Succ-β-CD (DS~6)],Butylone maximal enantioresolution Rs,[6],1.8
sulfo(2-hydroxy)propylated-β-CD [SHP-β-CD],4-MEC maximal enantioresolution Rs,[6],0.5
same,MDPV maximal enantioresolution Rs,[6],0.7
same,Mephedrone maximal enantioresolution Rs,[6],0.6
sulfo(2-hydroxy)propylated-γ-CD [SHP-γ-CD],4-MEC maximal enantioresolution Rs,[6],0.8
same,Butylone maximal enantioresolution Rs,[6],0.7
same,Mephedrone maximal enantioresolution Rs,[6],0.6
sulfobutyl-ether-β-CD [SBE-β-CD (DS~4)],4-MEC maximal enantioresolution Rs,[6],0.8
same,Mephedrone maximal enantioresolution Rs,[6],0.7
sulfopropylated-β-CD [SP-β-CD (DS~2)],MDPV maximal enantioresolution Rs,[6],0.6
